Test system: participants with T1D
Test: Same trial (NCT04201496): injected insulin amounts (technical performance metric)
Format: in vivo, human
Details: for infused insulin decrease / reduction: EMPA vs NOEMPA on same insulin system; for Injected Insulin (IU/kg · day): n = 16, mean ± SD
[1] = daytime (7:00-23:00), CIQ-EMPA vs. BIQ-NOEMPA, BIQ-EMPA vs. CIQ-NOEMPA
[2] = daytime (7:00-23:00), CIQ-EMPA vs. CIQ-NOEMPA, BIQ-EMPA vs. BIQ-NOEMPA
[3] = overall, CIQ-EMPA vs. BIQ-NOEMPA, BIQ-EMPA vs. CIQ-NOEMPA
[4] = overall, CIQ-EMPA vs. CIQ-NOEMPA, BIQ-EMPA vs. BIQ-NOEMPA
[5] = overnight, CIQ-EMPA vs. BIQ-NOEMPA, BIQ-EMPA vs. CIQ-NOEMPA

Row | Compound | infused insulin decrease / reduction (24/7, listed as PLGS-EMPA) | Difference (95% CI): Total Injected Insulin (IU/kg · day) [1] | Difference (95% CI): Total Injected Insulin (IU/kg · day) [2] | Injected Insulin (IU/kg · day) (daytime (7:00-23:00)) | Difference: Total Injected Insulin (IU/kg · day) [3] | Difference: Total Injected Insulin (IU/kg · day) [4] | Injected Insulin (IU/kg · day) (overall) | Difference (95% CI): Total Injected Insulin (IU/kg · day) [5] | Difference (95% CI): Total Injected Insulin (IU/kg · day) (overnight, CIQ-EMPA vs. CIQ-NOEMPA, BIQ-EMPA vs. BIQ-NOEMPA) | infused insulin decrease / reduction (overnight, listed as PLGS-EMPA) | Injected Insulin (IU/kg · day) (overnight) | infused insulin decrease / reduction (24/7, listed as AID-EMPA) | Difference (95% CI): Total Injected Insulin (IU/kg · day) (daytime (7:00-23:00), head prints CIQ-EMPA vs. BIQ-NOEMPA) | Difference: Total Injected Insulin (IU/kg · day) (overall, head prints CIQ-EMPA vs. BIQ-NOEMPA) | Difference: Total Injected Insulin (IU/kg · day) (overall, CIQ-EMPA vs. CIQ-NOEMPA, BIQ-EMPA vs. BIQ-NOEMPA, listed as AID-EMPA) | Difference (95% CI): Total Injected Insulin (IU/kg · day) (overnight, CIQ-EMPA vs. BIQ-EMPA) | Difference (95% CI): Total Injected Insulin (IU/kg · day) (overnight, CIQ-EMPA vs. CIQ-NOEMPA, BIQ-EMPA vs. BIQ-NOEMPA, listed as AID-EMPA) | infused insulin decrease / reduction (overnight, listed as AID-EMPA)
1 | OC[C@H]1O[C@@H](c2ccc(Cl)c(Cc3ccc(O[C@H]4CCOC4)cc3)c2)[C@H](O)[C@@H](O)[C@@H]1O [BIQ-EMPA, empagliflozin] | 25% | −0.15 IU/kg · day | −0.09 IU/kg · day | 0.37 ± 0.09 IU/kg · day | −0.20 IU/kg · day | −0.56 IU/kg · day | 0.50 ± 0.12 IU/kg · day | −0.00 IU/kg · day | −0.05 IU/kg · day | 40% | 0.09 ± 0.03 IU/kg · day |  |  |  |  |  |  | 
2 | OC[C@H]1O[C@@H](c2ccc(Cl)c(Cc3ccc(O[C@H]4CCOC4)cc3)c2)[C@H](O)[C@@H](O)[C@@H]1O [CIQ-EMPA, empagliflozin] |  | −0.06 IU/kg · day | −0.11 IU/kg · day | 0.41 ± 0.13 IU/kg · day | −0.13 IU/kg · day | −0.17 IU/kg · day | 0.52 ± 0.15 IU/kg · day | 0(−0.009 IU/kg · day |  |  | 0.11 ± 0.04 IU/kg · day | 24% | 0.04 IU/kg · day | 0.03 IU/kg · day | −0.17 IU/kg · day | 0.02(0 IU/kg · day | −0.06 IU/kg · day | 35.3%
